Data reported in the supplement of paper PMC7661543.
Differences between knockout arms are mostly noise.

Test system: BT-20
Assay: relative cell number vs DMSO control (72 h) (% of DMSO); higher = less growth inhibition (more cells)
Protocol: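 QMAP-Seq: a pool of 5 breast cancer cell lines (ZR-75-1, SKBR3, HCC-38, MDA-MB-231, BT-20), each carrying 12 doxycycline-inducible Cas9 sgRNA perturbations (11 knockouts plus non-targeting sgNT), was treated with compounds for 72 h at four 10-fold doses (10 nM-10 uM or 1 nM-1 uM range). Barcodes were amplified and sequenced, and cell number was interpolated from 293T spike-in standard curves. The result is expressed as % of the median of DMSO wells. Two biological replicates.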

CC(=O)Nc1nc(C)c(S(=O)(=O)Nc2ccc(C(O)(C(F)(F)F)C(F)(F)F)cc2)s1 [SR1001]
Details | relative cell number
sgRNA knockout: sgATF3, 10 nM | 106
sgRNA knockout: sgATF3, 100 nM | 86.6
sgRNA knockout: sgATF3, 1000 nM | 107
sgRNA knockout: sgATF3, 10000 nM | 97.1
sgRNA knockout: sgATF4, 10 nM | 107
sgRNA knockout: sgATF4, 100 nM | 94.7
sgRNA knockout: sgATF4, 1000 nM | 111
sgRNA knockout: sgATF4, 10000 nM | 114
sgRNA knockout: sgATF6, 10 nM | 98.1
sgRNA knockout: sgATF6, 100 nM | 94.6
sgRNA knockout: sgATF6, 1000 nM | 116.5
sgRNA knockout: sgATF6, 10000 nM | 116
sgRNA knockout: sgATG7, 10 nM | 108
sgRNA knockout: sgATG7, 100 nM | 89.7
sgRNA knockout: sgATG7, 1000 nM | 124
sgRNA knockout: sgATG7, 10000 nM | 103
sgRNA knockout: sgERN1, 10 nM | 91.8
sgRNA knockout: sgERN1, 100 nM | 95.7
sgRNA knockout: sgERN1, 1000 nM | 120
sgRNA knockout: sgERN1, 10000 nM | 120
sgRNA knockout: sgHSF1, 10 nM | 98.2
sgRNA knockout: sgHSF1, 100 nM | 97.2
sgRNA knockout: sgHSF1, 1000 nM | 108
sgRNA knockout: sgHSF1, 10000 nM | 102
sgRNA knockout: sgHSF2, 10 nM | 96.9
sgRNA knockout: sgHSF2, 100 nM | 79.2
sgRNA knockout: sgHSF2, 1000 nM | 121
sgRNA knockout: sgHSF2, 10000 nM | 116
sgRNA knockout: sgKEAP1, 10 nM | 94.1
sgRNA knockout: sgKEAP1, 100 nM | 90.1
sgRNA knockout: sgKEAP1, 1000 nM | 111
sgRNA knockout: sgKEAP1, 10000 nM | 107
sgRNA knockout: sgNFE2L2, 10 nM | 110
sgRNA knockout: sgNFE2L2, 100 nM | 99.5
sgRNA knockout: sgNFE2L2, 1000 nM | 110
sgRNA knockout: sgNFE2L2, 10000 nM | 126
sgRNA knockout: sgSLC35F2, 10 nM | 101
sgRNA knockout: sgSLC35F2, 100 nM | 84.8
sgRNA knockout: sgSLC35F2, 1000 nM | 106
sgRNA knockout: sgSLC35F2, 10000 nM | 120
sgRNA knockout: sgXBP1, 10 nM | 103.9
sgRNA knockout: sgXBP1, 100 nM | 111
sgRNA knockout: sgXBP1, 1000 nM | 119
sgRNA knockout: sgXBP1, 10000 nM | 108

CC(C)[C@H](O)C(=O)N[C@@H](C)C(=O)N[C@@H]1C(=O)N(C)CCc2ccccc21 [Semagacestat]
Details | relative cell number
sgRNA knockout: sgATF3, 10 nM | 100
sgRNA knockout: sgATF3, 100 nM | 100
sgRNA knockout: sgATF3, 1000 nM | 90
sgRNA knockout: sgATF3, 10000 nM | 94.7
sgRNA knockout: sgATF4, 10 nM | 104
sgRNA knockout: sgATF4, 100 nM | 111
sgRNA knockout: sgATF4, 1000 nM | 115
sgRNA knockout: sgATF4, 10000 nM | 92.2
sgRNA knockout: sgATF6, 10 nM | 101
sgRNA knockout: sgATF6, 100 nM | 95.2
sgRNA knockout: sgATF6, 1000 nM | 104.4
sgRNA knockout: sgATF6, 10000 nM | 89.7
sgRNA knockout: sgATG7, 10 nM | 118
sgRNA knockout: sgATG7, 100 nM | 95.8
sgRNA knockout: sgATG7, 1000 nM | 106
sgRNA knockout: sgATG7, 10000 nM | 89.6
sgRNA knockout: sgERN1, 10 nM | 103
sgRNA knockout: sgERN1, 100 nM | 93.4
sgRNA knockout: sgERN1, 1000 nM | 92.2
sgRNA knockout: sgERN1, 10000 nM | 94.3
sgRNA knockout: sgHSF1, 10 nM | 103
sgRNA knockout: sgHSF1, 100 nM | 114
sgRNA knockout: sgHSF1, 1000 nM | 85.6
sgRNA knockout: sgHSF1, 10000 nM | 89.2
sgRNA knockout: sgHSF2, 10 nM | 99.8
sgRNA knockout: sgHSF2, 100 nM | 88.9
sgRNA knockout: sgHSF2, 1000 nM | 96
sgRNA knockout: sgHSF2, 10000 nM | 95.7
sgRNA knockout: sgKEAP1, 10 nM | 102
sgRNA knockout: sgKEAP1, 100 nM | 91.6
sgRNA knockout: sgKEAP1, 1000 nM | 126
sgRNA knockout: sgKEAP1, 10000 nM | 95.13
sgRNA knockout: sgNFE2L2, 10 nM | 89
sgRNA knockout: sgNFE2L2, 100 nM | 121
sgRNA knockout: sgNFE2L2, 1000 nM | 99.5
sgRNA knockout: sgNFE2L2, 10000 nM | 101
sgRNA knockout: sgSLC35F2, 10 nM | 105
sgRNA knockout: sgSLC35F2, 100 nM | 101
sgRNA knockout: sgSLC35F2, 1000 nM | 99
sgRNA knockout: sgSLC35F2, 10000 nM | 89.2
sgRNA knockout: sgXBP1, 10 nM | 90.61
sgRNA knockout: sgXBP1, 100 nM | 102
sgRNA knockout: sgXBP1, 1000 nM | 119
sgRNA knockout: sgXBP1, 10000 nM | 90.02

CCC(C)(C)C(=O)O[C@H]1C[C@@H](C)C=C2C=C[C@H](C)[C@H](CC[C@@H]3C[C@@H](O)CC(=O)O3)[C@H]21 [Simvastatin]
Details | relative cell number
sgRNA knockout: sgATF3, 10 nM | 96.7
sgRNA knockout: sgATF3, 100 nM | 98.4
sgRNA knockout: sgATF3, 1000 nM | 96.5
sgRNA knockout: sgATF3, 10000 nM | 90.3
sgRNA knockout: sgATF4, 10 nM | 107
sgRNA knockout: sgATF4, 100 nM | 89
sgRNA knockout: sgATF4, 1000 nM | 94.1
sgRNA knockout: sgATF4, 10000 nM | 103
sgRNA knockout: sgATF6, 10 nM | 98.8
sgRNA knockout: sgATF6, 100 nM | 100
sgRNA knockout: sgATF6, 1000 nM | 104
sgRNA knockout: sgATF6, 10000 nM | 96.1
sgRNA knockout: sgATG7, 10 nM | 93.2
sgRNA knockout: sgATG7, 100 nM | 82.9
sgRNA knockout: sgATG7, 1000 nM | 109
sgRNA knockout: sgATG7, 10000 nM | 98.4
sgRNA knockout: sgERN1, 10 nM | 89.556
sgRNA knockout: sgERN1, 100 nM | 80.3
sgRNA knockout: sgERN1, 1000 nM | 112
sgRNA knockout: sgERN1, 10000 nM | 84.3
sgRNA knockout: sgHSF1, 10 nM | 96
sgRNA knockout: sgHSF1, 100 nM | 85.83
sgRNA knockout: sgHSF1, 1000 nM | 95.8
sgRNA knockout: sgHSF1, 10000 nM | 102
sgRNA knockout: sgHSF2, 10 nM | 85.7
sgRNA knockout: sgHSF2, 100 nM | 87.7
sgRNA knockout: sgHSF2, 1000 nM | 98.5
sgRNA knockout: sgHSF2, 10000 nM | 102
sgRNA knockout: sgKEAP1, 10 nM | 95.3
sgRNA knockout: sgKEAP1, 100 nM | 94.9
sgRNA knockout: sgKEAP1, 1000 nM | 92
sgRNA knockout: sgKEAP1, 10000 nM | 104
sgRNA knockout: sgNFE2L2, 10 nM | 85.7
sgRNA knockout: sgNFE2L2, 100 nM | 90.29
sgRNA knockout: sgNFE2L2, 1000 nM | 96.5
sgRNA knockout: sgNFE2L2, 10000 nM | 101
sgRNA knockout: sgSLC35F2, 10 nM | 96
sgRNA knockout: sgSLC35F2, 100 nM | 83.4
sgRNA knockout: sgSLC35F2, 1000 nM | 94.7
sgRNA knockout: sgSLC35F2, 10000 nM | 89
sgRNA knockout: sgXBP1, 10 nM | 103
sgRNA knockout: sgXBP1, 100 nM | 86.9
sgRNA knockout: sgXBP1, 1000 nM | 89.6
sgRNA knockout: sgXBP1, 10000 nM | 89.1
